Test results reported in PubChem BioAssay AID248 (DTP/NCI, 2004).
The list does not hold the whole screen: it is rich in T/C values a quarter to a half above the control, in often repeated tests (any T/C) and in doses without a T/C. Other doses and runs of a compound stand elsewhere. T/C: endpoint of the treated group in % of that of the vehicle group. Some entries give survivors of the animals treated and no T/C: the source files T/C as zero there, which appears to mark a toxic dose or a test without result, not a measured value. Some survivor counts are full or nearly so, which does not show that the dose was tolerated: survival well below the control is almost never listed, so the zero probably covers shortened survival too. Survivors were counted at the toxicity check, usually on the fifth day, unless a day is given; later deaths do not show. Schedules are NCI's codes, read here as Q, the interval in days (D) or hours (H), X, the number of doses. Some schedules carry Z or #; the key to these is not given. Where survival is the endpoint, this PubChem deposit counts one and a half times the control or more as active, and values a quarter to a half above the control carry no call in these data; other NCI protocols may use other cut-offs. Some T/C values are followed by the survivors on the day toxicity was checked, most often the fifth; where none is given, no animal had died by that day. Some entries hold several experiments; their values stand side by side, smallest first.

System: L1210 leukemia ip in BDF1 mice, survival T/C
Experiment: NCI In Vivo Anticancer Drug Screen. Data for tumor model L1210 Leukemia (intraperitoneal) in B6D2F1 (BDF1) mice
Conditions: T/C endpoint: mean survival time, higher T/C = longer survival
[1] = dose: 400.0 mg/kg/injection, schedule: Q04DX003 (ip), vehicle: saline with Tween-80
[2] = dose: 100.0 mg/kg/injection, schedule: Q01DX009 (ip), vehicle: saline with Tween-80
[3] = dose: 200.0 mg/kg/injection, schedule: Q01DX009 (ip), vehicle: saline with Tween-80
[4] = dose: 400.0 mg/kg/injection, schedule: Q01DX009 (ip), vehicle: saline with Tween-80
[5] = dose: 200.0 mg/kg/injection, schedule: Q01DX009 (ip), vehicle: saline
[6] = dose: 400.0 mg/kg/injection, schedule: Q01DX001 (ip), vehicle: saline
[7] = dose: 200.0 mg/kg/injection, schedule: Q01DX001 (ip), vehicle: saline

Question: With `CC(C)(C)C([NH-])=O.CC(C)(C)C([NH-])=O.[Cl][Pt+2][Cl]` as the compound, how does the survivor count (dose: 50.0 mg/kg/injection, schedule: Q01DX009 (ip), vehicle: saline) read?
Answer: 0 of 6

Question: What about the survivor count (dose: 100.0 mg/kg/injection, schedule: Q04DX003 (ip), vehicle: saline) of the same compound?
Answer: 1 of 6

Question: What about the survivor count (dose: 200.0 mg/kg/injection, schedule: Q04DX003 (ip), vehicle: saline) of the same compound?
Answer: 0 of 6

Question: And the survivor count (dose: 400.0 mg/kg/injection, schedule: Q04DX003 (ip), vehicle: saline)?
Answer: 0 of 6

Question: For `Cc1ccc(OCC(=O)Nc2c(Cl)cc(Cl)cc2Cl)c(C)c1`, which survivor count (dose: 50.0 mg/kg/injection, schedule: Q04DX002 (ip), vehicle: gum acacia) is on record?
Answer: 3 of 3

Question: For `Cc1c2ccncc2c(C)c2c1[nH]c1ccc(Cl)cc12`, which survivor count [1] is on record?
Answer: 6 of 6

Question: `CC(C)(O)C(=O)NC/C=C/c1ccccc1` was tested. Which survivor count [2] did it give?
Answer: 5 of 6

Question: And the survivor count [3]?
Answer: 0 of 6

Question: What about the survivor count [4] of the same compound?
Answer: 0 of 6

Question: `CCC1(C)N=C(N)N=C(N)N1c1ccc(Cl)c(Cl)c1` (stereo not given) was tested. Which survivor count (dose: 300.0 mg/kg/injection, schedule: Q01DX001 (ip), vehicle: saline) did it give?
Answer: 2 of 6

Question: With `CCC[CH2][Sn]([CH2]CCC)([CH2]CCC)[CH2]CC(N)=O` as the compound, how does the survivor count [5] read?
Answer: 1 of 3

Question: With `Cc1c2ccccc2nc(CNC2CCCCC2)[n+]1[O-]` as the compound, how does the survivor count (dose: 100.0 mg/kg/injection, schedule: Q01DX001 (ip), vehicle: acetone) read?
Answer: 0 of 6

Question: And the survivor count (dose: 200.0 mg/kg/injection, schedule: Q01DX001 (ip), vehicle: acetone)?
Answer: 0 of 6

Question: What about the survivor count (dose: 400.0 mg/kg/injection, schedule: Q01DX001 (ip), vehicle: acetone) of the same compound?
Answer: 0 of 6

Question: With `Clc1c(CBr)c(Cl)c(CBr)c(Cl)c1CBr` as the compound, how does the survivor count (dose: 100.0 mg/kg/injection, schedule: Q01DX009 (ip), vehicle: Klucel (hydroxypropylcellulose) (HPC)) read?
Answer: 3 of 6

Question: And the survivor count (dose: 200.0 mg/kg/injection, schedule: Q04DX003 (ip), vehicle: Klucel (hydroxypropylcellulose) (HPC))?
Answer: 2 of 6

Question: What about the survivor count (dose: 400.0 mg/kg/injection, schedule: Q04DX003 (ip), vehicle: Klucel (hydroxypropylcellulose) (HPC)) of the same compound?
Answer: 0 of 6

Question: With `CCC1CN2CCc3cc(OC)c(OC)cc3C2CC1CC1c2cc(OC)c(OC)cc2CCN1C(=O)C1CCCN1` (stereo not given) as the compound, how does the survivor count [6] read?
Answer: 0 of 4

Question: For `COC(=O)C1(C)CCC(c2ccc(OC)cc2)C(CC(=O)O)C1=O` (stereo not given), which survivor count [5] is on record?
Answer: 6 of 6

Question: With `CN(C)CC1(C)CCc2c(ccc3ccccc23)C1O` (stereo not given) as the compound, how does the survivor count (dose: 200.0 mg/kg/injection, schedule: Q01DX001 (ip), vehicle: Klucel (hydroxypropylcellulose) (HPC)) read?
Answer: 1 of 6

Question: What about the survivor count (dose: 400.0 mg/kg/injection, schedule: Q01DX001 (ip), vehicle: Klucel (hydroxypropylcellulose) (HPC)) of the same compound?
Answer: 0 of 6

Question: How did the survivor count (dose: 8.0 mg/kg/injection, schedule: Q01DX001 (ip), vehicle: saline + alcohol) turn out when `Cc1c2oc3c(C)ccc(C(=O)NC4C(=O)NC(C(C)C)C(=O)N(C)CC(=O)N(C)CC(=O)N(C)C(C(C)C)C(=O)OC4C)c3nc-2c(C(=O)NC2C(=O)NC(C(C)C)C(=O)N(C)CC(=O)N(C)CC(=O)N(C)C(C(C)C)C(=O)OC2C)c(N)c1=O` (stereo not given) was run?
Answer: 1 of 8

Question: And the T/C (dose: 500.0 micrograms/kg/injection, schedule: Q01DX009 (ip), vehicle: saline + alcohol)?
Answer: 145 % of control

Question: And the T/C (dose: 1000.0 micrograms/kg/injection, schedule: Q01DX009 (ip), vehicle: saline + alcohol)?
Answer: 138 % of control

Question: What about the T/C (dose: 3000.0 micrograms/kg/injection, schedule: Q04DX003 (ip), vehicle: saline + alcohol) of the same compound?
Answer: 135 % of control

Question: How did the T/C (dose: 200.0 mg/kg/injection, schedule: Q01DX Z (ip), vehicle: saline) turn out when `COCCOC` was run?
Answer: 133 and 142 % of control

Question: And the T/C (dose: 300.0 mg/kg/injection, schedule: Q01DX Z (ip), vehicle: saline)?
Answer: 125 % of control

Question: And the T/C (dose: 500.0 mg/kg/injection, schedule: Q01DX Z (ip), vehicle: saline)?
Answer: 139 % of control [5 of 6 alive]

Question: What about the T/C (dose: 1000.0 mg/kg/injection, schedule: Q01DX Z (ip), vehicle: saline) of the same compound?
Answer: 126, 132 [5 of 6 alive], 133 % of control

Question: What about the survivor count (dose: 1500.0 mg/kg/injection, schedule: Q01DX Z (ip), vehicle: saline) of the same compound?
Answer: 5 of 6

Question: What about the survivor count (dose: 2000.0 mg/kg/injection, schedule: Q01DX Z (ip), vehicle: saline) of the same compound?
Answer: 6 of 6

Question: How did the survivor count (dose: 30.0 mg/kg/injection, schedule: Q01DX001 (ip), vehicle: carboxymethylcellulose (CMC)) turn out when `Cc1cccc([P+](Cc2ccccc2)(c2cccc(C)c2)c2cccc(C)c2)c1` was run?
Answer: 1 of 6

Question: What about the survivor count (dose: 60.0 mg/kg/injection, schedule: Q01DX001 (ip), vehicle: carboxymethylcellulose (CMC)) of the same compound?
Answer: 2 of 6

Question: And the survivor count (dose: 75.0 mg/kg/injection, schedule: Q01DX001 (ip), vehicle: carboxymethylcellulose (CMC))?
Answer: 2 of 6

Question: And the survivor count (dose: 150.0 mg/kg/injection, schedule: Q01DX001 (ip), vehicle: carboxymethylcellulose (CMC))?
Answer: 0 of 6

Question: What about the survivor count (dose: 300.0 mg/kg/injection, schedule: Q01DX001 (ip), vehicle: carboxymethylcellulose (CMC)) of the same compound?
Answer: 0 of 6

Question: `COC1=C(Br)C(=O)C(OC)=C(Br)C1=O` was tested. Which survivor count (dose: 100.0 mg/kg/injection, schedule: Q04DX003 (ip), vehicle: saline with Tween-80) did it give?
Answer: 3 of 6

Question: And the survivor count (dose: 200.0 mg/kg/injection, schedule: Q04DX003 (ip), vehicle: saline with Tween-80)?
Answer: 0 of 6

Question: And the survivor count [1]?
Answer: 0 of 6

Question: With `C[S+]1CCCCC1` as the compound, how does the survivor count [7] read?
Answer: 1 of 4

Question: What about the survivor count [6] of the same compound?
Answer: 0 of 4

Question: `COc1cc(C(=O)Nc2ccc(C3=NCCN3)cc2)cc(C(=O)Nc2ccc(C3=NCCN3)cc2)c1` was tested. Which T/C (dose: 15.0 mg/kg/injection, schedule: Q01DX Z (ip), vehicle: saline) did it give?
Answer: 132 % of control

Question: With `CC1([CH2][Hg][I])COCC([CH2][Hg][I])O1` (stereo not given) as the compound, how does the survivor count (dose: 6.25 mg/kg/injection, schedule: Q01DX001 (ip), vehicle: saline) read?
Answer: 3 of 6

Question: And the survivor count (dose: 12.5 mg/kg/injection, schedule: Q01DX001 (ip), vehicle: saline)?
Answer: 2 of 6

Question: And the survivor count (dose: 25.0 mg/kg/injection, schedule: Q01DX001 (ip), vehicle: saline)?
Answer: 0 of 6

Question: And the survivor count (dose: 35.0 mg/kg/injection, schedule: Q04DX003 (ip), vehicle: saline)?
Answer: 3 of 6

Question: And the survivor count (dose: 50.0 mg/kg/injection, schedule: Q01DX001 (ip), vehicle: saline)?
Answer: 1 of 6

Question: And the survivor count (dose: 100.0 mg/kg/injection, schedule: Q01DX001 (ip), vehicle: saline)?
Answer: 0 of 6

Question: And the survivor count [7]?
Answer: 0 of 6

Question: What does the source list for `[Cl][Fe]([Cl])[Cl]`?
Answer: survivor count (dose: 50.0 mg/kg/injection, schedule: Q01DX009 (ip), vehicle: saline with Tween-80): 6 of 6; survivor count [2]: 5 of 6; survivor count [3]: 3 of 6; survivor count [4]: 0 of 6

Question: Which results are given for `COc1ccccc1C(=O)NC(=S)Nc1ccc(Cl)c(Cl)c1`?
Answer: survivor count (dose: 100.0 mg/kg/injection, schedule: Q01DX001 (ip), vehicle: Klucel (hydroxypropylcellulose) (HPC)): 6 of 6; survivor count (dose: 400.0 mg/kg/injection, schedule: Q01DX009 (ip), vehicle: Klucel (hydroxypropylcellulose) (HPC)): 5 of 6
